# Data: the supplement of paper PMC8728848
# The other results are listed elsewhere or left out.
# B1: MUB70 (Lactobacillus reuteri) (protein)
# chain: CVHVQYIDGETDQMLRQDDLDGYTDETIPYSTAEGIKKFEGDGYELFKDNFPAGEKFDNDDTNDQFYTVIF
# Assays:
# Assay in all cases: glycan array binding signal (z-score within array); higher = stronger binding
# Details in all cases: glycan notation: IUPAC condensed, linker removed
# Fuc(a1-2)Gal = target: Fuc(a1-2)Gal
# How it was run: (§1)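 The binding signal is a Z-score computed within each array and averaged over linkers. Arrays of the same protein sequence at different concentrations or buffers were also averaged together. Data originate from 3228 arrays in the Consortium for Functional Glycomics database, kept only where the protein sequence was available.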
# Fuc(a1-2)Gal(b1-3)GalNAc = target: Fuc(a1-2)Gal(b1-3)GalNAc
# How it was run: as §1
# [1] = target: Fuc(a1-2)Gal(b1-3)GalNAc(a1-3)[Fuc(a1-2)]Gal(b1-4)Glc
# How it was run: as §1
# [2] = target: Fuc(a1-2)Gal(b1-3)GalNAc(a1-3)[Fuc(a1-2)]Gal(b1-4)GlcNAc
# How it was run: as §1
# [3] = target: Fuc(a1-2)Gal(b1-3)GalNAc(b1-3)Gal
# How it was run: as §1
# [4] = target: Fuc(a1-2)Gal(b1-3)GalNAc(b1-3)Gal(a1-4)Gal(b1-4)Glc
# How it was run: as §1
# [5] = target: Fuc(a1-2)Gal(b1-3)GalNAc(b1-4)[Neu5Ac(a2-3)]Gal(b1-4)Glc
# How it was run: as §1
# Fuc(a1-2)Gal(b1-3)GlcNAc = target: Fuc(a1-2)Gal(b1-3)GlcNAc
# How it was run: as §1
# [6] = target: Fuc(a1-2)Gal(b1-3)GlcNAc(b1-2)Man(a1-3)[Fuc(a1-2)Gal(b1-3)GlcNAc(b1-2)Man(a1-6)]Man(b1-4)GlcNAc(b1-4)GlcNAc
# How it was run: as §1
# [7] = target: Fuc(a1-2)Gal(b1-3)GlcNAc(b1-2)Man(a1-3)[Fuc(a1-2)Gal(b1-3)GlcNAc(b1-2)Man(a1-6)]Man(b1-4)GlcNAc(b1-4)[Fuc(a1-6)]GlcNAc
# How it was run: as §1
# [8] = target: Fuc(a1-2)Gal(b1-3)GlcNAc(b1-3)Gal(b1-4)Glc
# How it was run: as §1
# [9] = target: Fuc(a1-2)Gal(b1-3)GlcNAc(b1-3)GalNAc
# How it was run: as §1
# [10] = target: Fuc(a1-2)Gal(b1-3)GlcNAc(b1-3)[Fuc(a1-2)Gal(b1-3)GlcNAc(b1-6)]GalNAc
# How it was run: as §1
# [11] = target: Fuc(a1-2)Gal(b1-3)GlcNAc(b1-3)[Gal(b1-4)GlcNAc(b1-6)]Gal(b1-4)Glc
# How it was run: as §1
# [12] = target: Fuc(a1-2)Gal(b1-3)GlcNAc(b1-3)[Neu5Ac(a2-6)Gal(b1-4)GlcNAc(b1-6)]Gal(b1-4)Glc
# How it was run: as §1
# [13] = target: Fuc(a1-2)Gal(b1-3)GlcNAc6S
# How it was run: as §1
# [14] = target: Fuc(a1-2)Gal(b1-3)[Fuc(a1-4)]GlcNAc
# How it was run: as §1
# [15] = target: Fuc(a1-2)Gal(b1-3)[Fuc(a1-4)]GlcNAc(b1-2)Man(a1-3)[Fuc(a1-2)Gal(b1-3)[Fuc(a1-4)]GlcNAc(b1-2)Man(a1-3)]Man(b1-4)GlcNAc(b1-4)GlcNAc
# How it was run: as §1
# [16] = target: Fuc(a1-2)Gal(b1-3)[Fuc(a1-4)]GlcNAc(b1-2)Man(a1-3)[Fuc(a1-2)Gal(b1-3)[Fuc(a1-4)]GlcNAc(b1-2)Man(a1-6)]Man(b1-4)GlcNAc(b1-4)[Fuc(a1-6)]GlcNAc(b1-4)[Fuc(a1-6)]GlcNAc
# How it was run: as §1
# [17] = target: Fuc(a1-2)Gal(b1-3)[Fuc(a1-4)]GlcNAc(b1-3)[Fuc(a1-3)[Gal(b1-4)]GlcNAc(b1-6)]Gal(b1-4)Glc
# How it was run: as §1
# [18] = target: Fuc(a1-2)Gal(b1-3)[Fuc(a1-4)]GlcNAc(b1-3)[Gal(b1-4)GlcNAc(b1-6)]Gal(b1-4)Glc
# How it was run: as §1
# [19] = target: Fuc(a1-2)Gal(b1-4)Fuc(a1-3)]GlcNAc(b1-2)Man(a1-3)[Fuc(a1-2)Gal(b1-4)[Fuc(a1-3)]GlcNAc(b1-2)Man(a1-6)]Man(b1-4)GlcNAc(b1-4)GlcNAc
# How it was run: as §1
# Fuc(a1-2)Gal(b1-4)Glc = target: Fuc(a1-2)Gal(b1-4)Glc
# How it was run: as §1
# Fuc(a1-2)Gal(b1-4)Glc6S = target: Fuc(a1-2)Gal(b1-4)Glc6S
# How it was run: as §1
# Fuc(a1-2)Gal(b1-4)GlcNAc = target: Fuc(a1-2)Gal(b1-4)GlcNAc
# How it was run: as §1
# [20] = target: Fuc(a1-2)Gal(b1-4)GlcNAc(b1-2)Man
# How it was run: as §1
# [21] = target: Fuc(a1-2)Gal(b1-4)GlcNAc(b1-2)Man(a1-3)[Fuc(a1-2)Gal(b1-4)GlcNAc(b1-2)Man(a1-6)]Man(b1-4)GlcNAc(b1-4)GlcNAc
# How it was run: as §1
# [22] = target: Fuc(a1-2)Gal(b1-4)GlcNAc(b1-2)Man(a1-3)[Fuc(a1-2)Gal(b1-4)GlcNAc(b1-2)Man(a1-6)]Man(b1-4)GlcNAc(b1-4)[Fuc(a1-6)]GlcNAc
# How it was run: as §1
# [23] = target: Fuc(a1-2)Gal(b1-4)GlcNAc(b1-2)[Fuc(a1-2)Gal(b1-4)GlcNAc(b1-4)]Man(a1-3)[Fuc(a1-2)Gal(b1-4)GlcNAc(b1-2)Man(a1-6)]Man(b1-4)GlcNAc(b1-4)GlcNAc
# How it was run: as §1
# [24] = target: Fuc(a1-2)Gal(b1-4)GlcNAc(b1-3)Gal(b1-4)GlcNAc
# How it was run: as §1
# [25] = target: Fuc(a1-2)Gal(b1-4)GlcNAc(b1-3)Gal(b1-4)GlcNAc(b1-2)Man(a1-3)[Fuc(a1-2)Gal(b1-4)GlcNAc(b1-3)Gal(b1-4)GlcNAc(b1-2)Man(a1-6)]Man(b1-4)GlcNAc(b1-4)GlcNAc
# How it was run: as §1
# [26] = target: Fuc(a1-2)Gal(b1-4)GlcNAc(b1-3)Gal(b1-4)GlcNAc(b1-3)Gal(b1-4)GlcNAc
# How it was run: as §1
# [27] = target: Fuc(a1-2)Gal(b1-4)GlcNAc(b1-3)GalNAc
# How it was run: as §1
# [28] = target: Fuc(a1-2)Gal(b1-4)GlcNAc(b1-3)[Fuc(a1-2)Gal(b1-4)GlcNAc(b1-6)]GalNAc
# How it was run: as §1
# [29] = target: Fuc(a1-2)Gal(b1-4)GlcNAc(b1-3)[Fuc(a1-3)[Gal(b1-4)]GlcNAc(b1-6)]Gal(b1-4)Glc
# How it was run: as §1
# [30] = target: Fuc(a1-2)Gal(b1-4)GlcNAc(b1-6)GalNAc
# How it was run: as §1
# [31] = target: Fuc(a1-2)Gal(b1-4)GlcNAc6S
# How it was run: as §1
binder,measurement,setting,value
B1,glycan array binding signal (z-score),Fuc(a1-2)Gal,0.151
same,glycan array binding signal (z-score),Fuc(a1-2)Gal(b1-3)GalNAc,-0.543
same,glycan array binding signal (z-score),[1],-0.708
same,glycan array binding signal (z-score),[2],0.081
same,glycan array binding signal (z-score),[3],0.156
same,glycan array binding signal (z-score),[4],-0.34
same,glycan array binding signal (z-score),[5],-0.592
same,glycan array binding signal (z-score),Fuc(a1-2)Gal(b1-3)GlcNAc,-0.448
same,glycan array binding signal (z-score),[6],-0.679
same,glycan array binding signal (z-score),[7],-0.229
same,glycan array binding signal (z-score),[8],-0.29
same,glycan array binding signal (z-score),[9],0.169
same,glycan array binding signal (z-score),[10],0.173
same,glycan array binding signal (z-score),[11],0.656
same,glycan array binding signal (z-score),[12],0.115
same,glycan array binding signal (z-score),[13],-0.415
same,glycan array binding signal (z-score),[14],0.563
same,glycan array binding signal (z-score),[15],-0.048
same,glycan array binding signal (z-score),[16],1.08
same,glycan array binding signal (z-score),[17],0.354
same,glycan array binding signal (z-score),[18],0.024
same,glycan array binding signal (z-score),[19],0.344
same,glycan array binding signal (z-score),Fuc(a1-2)Gal(b1-4)Glc,-0.898
same,glycan array binding signal (z-score),Fuc(a1-2)Gal(b1-4)Glc6S,-0.001
same,glycan array binding signal (z-score),Fuc(a1-2)Gal(b1-4)GlcNAc,-0.384
same,glycan array binding signal (z-score),[20],0.231
same,glycan array binding signal (z-score),[21],-0.781
same,glycan array binding signal (z-score),[22],-0.62
same,glycan array binding signal (z-score),[23],-0.532
same,glycan array binding signal (z-score),[24],-0.781
same,glycan array binding signal (z-score),[25],0.338
same,glycan array binding signal (z-score),[26],0.045
same,glycan array binding signal (z-score),[27],0.04
same,glycan array binding signal (z-score),[28],-0.208
same,glycan array binding signal (z-score),[29],0.671
same,glycan array binding signal (z-score),[30],0.153
same,glycan array binding signal (z-score),[31],0.29

# Nothing new here: entries from further up.
binder,measurement,setting,value
B1,glycan array binding signal (z-score),[14],0.563
same,glycan array binding signal (z-score),[15],-0.048
same,glycan array binding signal (z-score),[16],1.08
same,glycan array binding signal (z-score),[17],0.354
same,glycan array binding signal (z-score),[18],0.024
same,glycan array binding signal (z-score),[19],0.344
same,glycan array binding signal (z-score),Fuc(a1-2)Gal(b1-4)Glc,-0.898
same,glycan array binding signal (z-score),Fuc(a1-2)Gal(b1-4)Glc6S,-0.001
same,glycan array binding signal (z-score),Fuc(a1-2)Gal(b1-4)GlcNAc,-0.384
